Measurements taken from PMC5940383, “SMAR1 inhibits Wnt/β-catenin signaling and prevents colorectal cancer progression” (Oncotarget, 2018).
Results are given in words; binding and its absence hold for the method and conditions named. Some results given as binding are weak or reduced against the parent protein; the word gives no strength.

Target: SMAR1 protein (UniProt Q8VBU8)
Assay: ITC; MicroCal iTC200, room temperature; peptides with SMAR1 protein; both purified

Q: How did the binding turn out when ATATVNAIRGSVTPAVSQFN [AT-01C] was run?
A: Its binding is “binds”.

Q: For NAIRGSVTPAVSQFN [AT-01D], which binding is on record?
A: Its binding is “binds”.
